This is an account of results in publication PMC4125083.

The assay addresses Full-length GCN-1 (1–2634) (C. elegans) (UniProt B3CJ34). The experiment in a line: two-hybrid; GAL4 fusion constructs (GCN-1 in pGBKT7, ABCF-3 in pGADT7) in yeast strain PJ649A; growth for three days at 30°C on SD plates without tryptophan, leucine and histidine.

Results are given in words; binding and its absence hold for the method and conditions named. Binding can be weak; no strength is given.

Turning to “Full-length ABCF-3 (1–712) (from UniProt Q20306)”, the binding result is recorded as “binds”.
